Measured values as given in article PMC12311259, “Antifibrotic effects of specific targeting of the 5‐hydroxytryptamine 2B receptor (5‐HT2BR) in murine models and ex vivo models of scleroderma skin” (Arthritis & Rheumatology (Hoboken, N.j.), 2025).

System: PCS slices of SSc skin
Test: Precision cut skin (PCS) slices of SSc skin, ex vivo, RNASeq and immunofluorescence
Format: cell-based, human

C[C@@H]1CN(C(=N)N)N=C1c1ccc(F)cc1O [AM1476]
immune cell types whose related terms were modulated (30 μM): myeloid leukocytes, granulocytes, and mononuclear cells

COc1c(C)c2c(c(O)c1C/C=C(\C)CCC(=O)OCCN1CCOCC1)C(=O)OC2 [MMF, mycophenolate mofetil, reference compound]
immune cell types whose related terms were modulated (1 μM): T cells, natural killer cells, myeloid leukocytes, and neutrophils
